In PubChem BioAssay AID1347076 (National Center for Advancing Translational Sciences (NCATS), 2019):
About 13,000 (3.2%) of roughly 400,000 compounds were called active. This list was built around the results that the source calls inconclusive (neither active nor inactive); the mix of calls is not that of the screen. The call rests on the fitted dose curve; in most records, active means well fitted cell-killing curve with a large enough effect; inconclusive means small, poorly fitted or top-dose-only effect, or effect the other way; inactive means flat fitted curve, though single readings scatter. Potencies beside an inconclusive call are fits to weak or partial responses and may not hold up.

Assay: qHTS assay for MDR1-selective chemotherapeutics: Primary screen using the drug-selected MDR subline cells KB-V1; further: nearly all actives have a fitted effect of over 60% in size
Details: KB-V1 MDR cells viability, CellTiter-Glo, 72 h; series mostly up to 46.1 µM
How it was run: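 Cytotoxicity toward P-gp-expressing KB-V1 cells was determined as loss of CellTiter-Glo luminescence after 72 h at 37 degrees C. Compounds were tested in quantitative HTS format across a concentration range, with curves fitted to normalized data.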
Potency means the concentration at half of the fitted maximal effect.

Question: Which Potency does the source give for `OCCSc1ncnc2c1oc1ccccc12` here?
Answer: The Potency was “inactive”.

Question: For `OCCCNc1ncnc2sc(-c3ccccc3)cc12`, which Potency is on record?
Answer: The Potency was “inactive”.

Question: With `COc1ccccc1/C=C(\NC(=O)c1ccccc1)C(=O)NCc1ccco1` as the compound, how does the Potency read?
Answer: The Potency was “inactive”.

Question: For `CC(C)N(Cc1nc(-c2ccc(Cl)cc2)no1)C(=O)c1ccco1`, which Potency is on record?
Answer: The Potency was “inactive”.

Question: For `COc1cc(OC)c(NC(=O)CNC(=O)Cn2ccc3ccccc3c2=O)cc1Cl`, which Potency is on record?
Answer: The Potency was “inactive”.

Question: For `CCCc1nc2scc(-c3ccccc3)c2c(=O)n1N`, which Potency is on record?
Answer: Its Potency is “inactive”.

Question: Which Potency does the source give for `CCCCOC(=O)C1C2C=C[C@]3(CN(CCCOC)C(=O)[C@H]13)O2` (some centres undefined) here?
Answer: The Potency was “inactive”.

Question: For `COc1cc2nc(CSc3nc(-c4ccc(F)cc4)cs3)[nH]c(=O)c2cc1OC`, which Potency is on record?
Answer: The Potency was inconclusive: 6.51 µM [cytotoxic, full curve].

Question: Which Potency does the source give for `COC(=O)c1sccc1S(=O)(=O)N1CCCC(N(C)CCc2ccccn2)C1` (centres undefined) here?
Answer: Its Potency is inconclusive: 25.9 µM [cytotoxic, single point].

Question: Which Potency does the source give for `COc1cc(C(=O)NCc2ccccc2)cc(Br)c1OC` here?
Answer: Its Potency is “inactive”.

Question: With `COc1ccc2c(c1)c1c(c(=O)n(-c3cccc(C)c3)c(=O)n1CC(=O)NCc1ccc(C)cc1)n2C` as the compound, how does the Potency read?
Answer: Its Potency is inconclusive: 20.6 µM [rising, single point].

Question: With `CC(=O)Nc1ccc(S(=O)(=O)Nc2cccc3cccnc23)cc1` as the compound, how does the Potency read?
Answer: The Potency was inconclusive: 29.1 µM [cytotoxic, single point].

Question: Which Potency does the source give for `O=C(CSc1nnc(NC(=O)C2CC2)s1)NCc1ccccc1Cl` here?
Answer: The Potency was “inactive”.

Question: Which Potency does the source give for `Cc1cc(NC(CC(C)C)C(=O)O)nc(Cc2ccccc2)n1` (centres undefined) here?
Answer: Its Potency is inconclusive: 29.1 µM [rising, single point].

Question: Which Potency does the source give for `COc1ccccc1-n1c(=S)[nH]c2c(sc(=S)n2-c2ccccc2C)c1=O` here?
Answer: Its Potency is inconclusive: 0.0146 µM [rising, full curve].

Question: For `O=C(Oc1cccc2cccnc12)c1ccc2c(c1)OCCO2`, which Potency is on record?
Answer: The Potency was inconclusive: 29.1 µM [cytotoxic, single point].

Question: Which Potency does the source give for `Cc1noc(C)c1CSc1nnc(-c2ccccc2)n1Cc1ccco1` here?
Answer: The Potency was inconclusive: 16.4 µM [cytotoxic, partial curve, poor fit].

Question: With `NNC(=O)c1cc2c(ccc3ccccc32)o1` as the compound, how does the Potency read?
Answer: Its Potency is inconclusive: 20.6 µM [cytotoxic, single point].

Question: For `CCSc1nc2ccccc2c(OCc2cc(C(=O)OC)ccc2OC)c1C(=O)OC`, which Potency is on record?
Answer: Its Potency is inconclusive: 2.06 µM [cytotoxic, single point].

Question: Which Potency does the source give for `COc1ccc(CC(=O)NNC(=O)c2nn(Cc3ccccc3)c(=O)c3ccccc23)cc1OC` here?
Answer: The Potency was “inactive”.

Question: For `O=c1[nH]cc(CCc2ccccc2)c(=O)[nH]1`, which Potency is on record?
Answer: Its Potency is inconclusive: 29.1 µM [cytotoxic, single point].

Question: For `CC(=O)Nc1ccc(S(=O)(=O)N(C)c2ccc(OCC(=O)OCC(=O)NCc3ccco3)cc2)cc1`, which Potency is on record?
Answer: Its Potency is “inactive”.

Question: Which Potency does the source give for `COc1ccc(-c2cc(C)no2)cc1S(=O)(=O)NCCc1ccco1` here?
Answer: Its Potency is “inactive”.

Question: With `COc1ccc([C@@H](C)NC(=O)CCc2nnc(-c3cc(C)on3)o2)cc1` as the compound, how does the Potency read?
Answer: The Potency was inconclusive: 29.1 µM [cytotoxic, single point].

Question: For `CCc1ccc(OCC(=O)OC(C)C(=O)NC2CC2)cc1` (centres undefined), which Potency is on record?
Answer: The Potency was inconclusive: 29.1 µM [rising, single point].

Question: Which Potency does the source give for `O=C1c2ccccc2C(c2nnnn2Cc2ccccc2)N1Cc1ccc(F)cc1` (centres undefined) here?
Answer: The Potency was inconclusive: 10.3 µM [cytotoxic, partial curve].

Question: For `O=C(NCc1cccc(Cl)c1)c1ccc2c(c1)OCO2`, which Potency is on record?
Answer: Its Potency is inconclusive: 29.1 µM [cytotoxic, single point].

Question: Which Potency does the source give for `CCN(CC)CCCNC(=O)Cn1cnc2sc(C)c(S(=O)(=O)N3CCC(C)CC3)c2c1=O` here?
Answer: Its Potency is inconclusive: 16.4 µM [rising, partial curve, poor fit].

Question: For `CCCOc1cccc(C(=O)Nc2cccc(NC(=O)c3ccc(Cl)cc3Cl)c2)c1`, which Potency is on record?
Answer: The Potency was “inactive”.

Question: Which Potency does the source give for `COc1ccc(OC)c(C2=Nn3c(nnc3C3CCCCC3)SC2)c1` here?
Answer: The Potency was inconclusive: 20.6 µM [cytotoxic, single point].

Question: With `Cc1nc2c(OCc3ccc(C(F)(F)F)cc3)cccn2c1N(C)C(=O)CCC1CCCC1` as the compound, how does the Potency read?
Answer: Its Potency is inconclusive: 29.1 µM [cytotoxic, single point].

Question: For `O=C1CCSC2(C(=O)N(Cc3ccc(F)cc3)c3ccccc32)N1c1cccc(F)c1` (centres undefined), which Potency is on record?
Answer: The Potency was inconclusive: 5.17 µM [cytotoxic, full curve].

Question: For `CCN(CC)C(=O)C1CCCN(c2ccc([N+](=O)[O-])cc2/C=N/NC(=O)c2cccc(O)c2)C1` (centres undefined), which Potency is on record?
Answer: The Potency was inconclusive: 18.4 µM [cytotoxic, single point].

Question: For `COc1ccc(Nc2ncnc3ccc(C)cc23)cc1`, which Potency is on record?
Answer: The Potency was inconclusive: 14.6 µM [cytotoxic, partial curve, poor fit].

Question: Which Potency does the source give for `Cc1cc(N2CCCCC2)nc2ccc(NC(=O)CCC(=O)NCCC(C)C)cc12` here?
Answer: The Potency was inconclusive: 20.6 µM [cytotoxic, partial curve, poor fit].

Question: Which Potency does the source give for `O=C(/C=C/c1cn(-c2ccccc2)nc1-c1cccc(Cl)c1)N1CCN(c2ccccn2)CC1` here?
Answer: Its Potency is active: 23.1 µM.

Question: Which Potency does the source give for `CCOC(=O)N1CCN(C(=O)CN(Cc2ccc(Cl)cc2)S(C)(=O)=O)CC1` here?
Answer: Its Potency is inconclusive: 10.3 µM [cytotoxic, partial curve].

Question: For `COc1ccc(S(=O)(=O)N2CCCC2CNC(=O)C(=O)Nc2cccc(F)c2)cc1` (centres undefined), which Potency is on record?
Answer: The Potency was active: 4.11 µM.

Question: With `OC[C@@H]1CN(Cc2ccc(Cl)cc2)C[C@H](n2cnc3c(N4CCOCC4)ncnc32)O1` as the compound, how does the Potency read?
Answer: The Potency was “inactive”.

Question: Which Potency does the source give for `O=C(N=Nc1c(O)n(Cc2ccccc2)c2ccccc12)c1cc2ccccc2cc1O` here?
Answer: Its Potency is inconclusive: 18.4 µM [cytotoxic, partial curve].

Question: Which Potency does the source give for `Cc1cc(C([O-])=C(C(=S)Nc2ccccc2)[n+]2ccccc2)c(C)n1-c1ccccc1` here?
Answer: The Potency was “inactive”.

Question: Which Potency does the source give for `COc1cccc(C(c2sc3nc(-c4ccco4)nn3c2O)N2CCN(C)CC2)c1` (centres undefined) here?
Answer: Its Potency is inconclusive: 29.1 µM [rising, single point].

Question: With `Nn1c(SCc2c(F)cccc2F)nnc1-c1ccccn1` as the compound, how does the Potency read?
Answer: The Potency was “inactive”.

Question: Which Potency does the source give for `CCCCN(C)C(=O)c1nc2ccccn2c1CN1CCN(C/C=C/c2ccccc2)CC1` here?
Answer: The Potency was inconclusive: 7.31 µM [cytotoxic, partial curve].

Question: With `CC(C)(C)N(Cc1ccc2c(c1)OCO2)C(=O)/C=C\S(=O)c1ccccc1` (centres undefined) as the compound, how does the Potency read?
Answer: Its Potency is “inactive”.

Question: With `CC(=O)Nc1ccc(S(=O)(=O)NCCC(=O)OCC(=O)c2ccccc2)cc1` as the compound, how does the Potency read?
Answer: Its Potency is inconclusive: 2.59 µM [rising, full curve].

Question: Which Potency does the source give for `COc1ccccc1N1CCN(S(=O)(=O)CCNC(=O)c2cccc(F)c2)CC1` here?
Answer: The Potency was inconclusive: 13 µM [cytotoxic, partial curve, poor fit].

Question: For `CCc1nc2ccc(C(=O)N(C)Cc3ccco3)cn2c1N(C)CCCc1ccccc1`, which Potency is on record?
Answer: The Potency was inconclusive: 29.1 µM [cytotoxic, single point].

Question: Which Potency does the source give for `O=c1c(Cl)c(N2CCOCC2)cnn1-c1ncc(C(F)(F)F)cc1Cl` here?
Answer: The Potency was inconclusive: 14.6 µM [rising, partial curve, poor fit].

Question: For `COc1ccc(NC(=O)CC(C)S(=O)(=O)c2cc3c(cc2C)NC(=O)CO3)cc1OC` (centres undefined), which Potency is on record?
Answer: The Potency was “inactive”.

Question: With `COc1ccc(NC(=O)C2Cc3c(-c4ccco4)ccnc3O2)cc1OC` (centres undefined) as the compound, how does the Potency read?
Answer: Its Potency is inconclusive: 2.59 µM [cytotoxic, full curve, poor fit].

Question: Which Potency does the source give for `Cc1ccc2c(=O)cc(C(=O)Nc3c(C(=O)c4ccc(F)cc4)oc4ccccc34)oc2c1C` here?
Answer: The Potency was inconclusive: 29.1 µM [rising, single point].

Question: For `Cn1c(=O)c2c(nc(SCc3cccnc3)n2Cc2ccc(F)cc2)n(C)c1=O`, which Potency is on record?
Answer: Its Potency is inconclusive: 16.4 µM [cytotoxic, partial curve, poor fit].

Question: Which Potency does the source give for `CSc1nn(CC(=O)Nc2cc(C)ccc2C)c(N)c1S(=O)(=O)c1ccccc1` here?
Answer: Its Potency is inconclusive: 32.6 µM [cytotoxic, partial curve, poor fit].

Question: With `COc1ccc(Cl)cc1NC(=O)CSc1nnc(Cc2cccn2C)n1-c1ccc(F)cc1` as the compound, how does the Potency read?
Answer: Its Potency is inconclusive: 29.1 µM [cytotoxic, single point].

Question: For `Cc1cc(C)n(CCNC(=O)c2cc(COc3ccc(F)cc3Cl)on2)n1`, which Potency is on record?
Answer: The Potency was inconclusive: 18.4 µM [cytotoxic, partial curve].

Question: Which Potency does the source give for `O=C(O)/C=C/c1coc2ccc(F)cc2c1=O` here?
Answer: The Potency was inconclusive: 25.9 µM [rising, single point].

Question: For `Cc1cc(Br)c(NC(=O)C(C)Sc2nnnn2C)c(Br)c1` (centres undefined), which Potency is on record?
Answer: Its Potency is inconclusive: 20.6 µM [cytotoxic, partial curve].

Question: Which Potency does the source give for `COc1ccc(Cl)cc1NC(=O)C(C)N(C)Cc1ccc(C(F)(F)F)cc1` (centres undefined) here?
Answer: Its Potency is inconclusive: 20.6 µM [cytotoxic, single point].

Question: Which Potency does the source give for `Cn1cccc1-c1cc(C(=O)N/N=C/C=C/c2ccccc2)[nH]n1` here?
Answer: Its Potency is “inactive”.

Question: Which Potency does the source give for `Cc1nn(-c2ccc(F)cc2)c2sc(C(=O)OCC(=O)N3CCC(C)CC3)cc12` here?
Answer: The Potency was inconclusive: 7.31 µM [cytotoxic, partial curve].

Question: Which Potency does the source give for `Nc1c2c(nc3ccccc13)CSCC2` here?
Answer: The Potency was “inactive”.

Question: Which Potency does the source give for `COC(=O)c1ccc(C2C(C(=O)OCC(C)C)=C(C)N=C3SCCC(=O)N32)cc1` (centres undefined) here?
Answer: Its Potency is inconclusive: 23.1 µM [cytotoxic, single point].

Question: With `O=C1C(=O)N(Cc2cccnc2)C(c2cccc(Br)c2)/C1=C(/O)c1ccc2c(c1)OCO2` (centres undefined) as the compound, how does the Potency read?
Answer: The Potency was inconclusive: 20.6 µM [rising, partial curve].

Question: With `Cc1cc(C)c2sc(N(CCCN(C)C)C(=O)c3ccc(S(=O)(=O)N(C)Cc4ccccc4)cc3)nc2c1` as the compound, how does the Potency read?
Answer: Its Potency is active: 20.6 µM.

Question: With `Clc1ccccc1C1CC(c2ccccc2)=Nc2ccccc2N1` (centres undefined) as the compound, how does the Potency read?
Answer: Its Potency is “inactive”.

Question: For `COc1ccc(CNC(=O)[C@H](CCSC)NC(=O)N2CCn3c2nc2ccccc23)cc1`, which Potency is on record?
Answer: The Potency was “inactive”.

Question: With `COc1cccc(CNc2nc3cc(-c4ccc(OC)cc4C)sc3c(=O)n2C)c1` as the compound, how does the Potency read?
Answer: Its Potency is inconclusive: 29.1 µM [cytotoxic, single point].

Question: For `CCC(CC)C(=O)Nc1cc(-c2nc3cccnc3s2)ccc1C`, which Potency is on record?
Answer: The Potency was “inactive”.
